Laboratory results: article PMC10123117

Chains of the proteins cited; added tags and fusions are not shown.
UniProt Q6A4J8: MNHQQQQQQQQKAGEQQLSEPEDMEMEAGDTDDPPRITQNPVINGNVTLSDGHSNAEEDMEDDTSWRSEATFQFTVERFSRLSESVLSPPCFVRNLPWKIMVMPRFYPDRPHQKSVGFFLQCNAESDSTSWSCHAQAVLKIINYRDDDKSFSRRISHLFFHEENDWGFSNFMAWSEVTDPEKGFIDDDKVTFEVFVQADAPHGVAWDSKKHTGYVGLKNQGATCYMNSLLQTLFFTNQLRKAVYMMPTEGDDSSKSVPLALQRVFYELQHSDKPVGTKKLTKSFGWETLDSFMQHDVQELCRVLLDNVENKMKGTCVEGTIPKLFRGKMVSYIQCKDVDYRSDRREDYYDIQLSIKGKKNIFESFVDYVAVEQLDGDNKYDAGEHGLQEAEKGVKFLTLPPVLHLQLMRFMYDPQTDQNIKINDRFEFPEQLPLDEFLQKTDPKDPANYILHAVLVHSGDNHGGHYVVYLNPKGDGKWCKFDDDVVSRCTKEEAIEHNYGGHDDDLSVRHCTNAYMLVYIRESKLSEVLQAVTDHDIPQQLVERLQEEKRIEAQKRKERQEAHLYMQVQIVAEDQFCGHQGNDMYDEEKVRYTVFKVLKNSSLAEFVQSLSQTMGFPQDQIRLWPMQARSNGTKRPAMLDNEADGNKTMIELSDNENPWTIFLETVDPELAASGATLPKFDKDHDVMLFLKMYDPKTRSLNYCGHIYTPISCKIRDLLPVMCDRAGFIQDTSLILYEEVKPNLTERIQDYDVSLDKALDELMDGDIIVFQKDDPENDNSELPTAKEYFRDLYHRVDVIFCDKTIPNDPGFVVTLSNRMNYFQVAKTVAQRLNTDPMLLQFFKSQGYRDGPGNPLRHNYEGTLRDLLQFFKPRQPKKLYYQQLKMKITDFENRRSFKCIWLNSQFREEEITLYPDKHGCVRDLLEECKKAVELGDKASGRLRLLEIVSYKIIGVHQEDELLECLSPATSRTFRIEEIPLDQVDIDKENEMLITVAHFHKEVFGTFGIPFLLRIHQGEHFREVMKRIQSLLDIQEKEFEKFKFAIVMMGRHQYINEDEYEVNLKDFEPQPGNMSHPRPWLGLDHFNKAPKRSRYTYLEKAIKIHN

Molecular target: USP7 (mouse (endogenous in E14TG2a ES cells)) (UniProt Q6A4J8)
Assay: affinity purification with mass spectrometry; anti-USP7 immunoprecipitation of endogenous USP7 from WT mESC lysate, Usp7-KO ES cells as control, three independent experiments; nanoLC-MS/MS, spectral counts; enriched: fold change >4 and adjusted P <0.05

binding: binds
B1: KDM2B (protein, UniProt Q6P1G2 1-1309)
chain: MEAEKDSGRRLRAIDRQRYDENEDLSDVEEIVSVRGFSLEEKLRSQLYQGDFVHAMEGKDFNYEYVQREALRVPLVFRDKDGLGIKMPDPDFTVRDVKLLVGSRRLVDVMDVNTQKGTEMSMSQFVRYYETPEAQRDKLYNVISLEFSHTKLEHLVKRPTVVDLVDWVDNMWPQHLKEKQTEATNALAEMKYPKVKKYCLMSVKGCFTDFHIDFGGTSVWYHVFRGGKIFWLIPPTLHNLALYEEWVLSGKQSDIFLGDRVERCQRIELKQGYTFFIPSGWIHAVYTPVDSLVFGGNILHSFNVPMQLRIYEIEDRTRVQPKFRYPFYYEMCWYVLERYVYCVTQRSYLTQEYQRELMLIDAPRKTSVDGFSSDSWLDMEEESCEQQPQEEEEEEEDKEEEGDGADKTPKPPTDDPTSPTSTPPEDQDSTGKKPKAPAIRFLKRTLSNESEESVKSTSMPTDDPKTPTGSPATEVSTKWTHLTEFELKGLKALVEKLESLPENKKCVPEGIEDPQALLEGVKNVLKEHVDDDPTLAITGVPVVSWPKKTAKNRVVGRPKGKLGPASAVKLAANRTTAGARRRRTRCRKCEACLRTECGECHFCKDMKKFGGPGRMKQSCIMRQCIAPVLPHTAVCLVCGEAGKEDTVEEEEGKFNLMLMECSICNEIIHPGCLKIKESEGVVNDELPNCWECPKCNHAGKTGKQKRGPGFKYASNLPGSLLKEQKMNRDNKEGQEPAKRRSECEEAPRRRSDEHPKKVPADGILRRKSDDVHLRRKRKYEKPQELSGRKRASSLQTSPGSSSHLSPRPPLGSSLSPWWRSSLTYFQQQLKPGKEDKLFRKKRRSWKNAEDRLSLANKPLRRFKQEPEDDLPEAPPKTRESDQSRSSSPTAGPSTEGAEGPEEKKKVKMRRKRRLVNKELSKELSKELNHEIQKTESTLAHESQQPIKSEPESENDEPKRPLSHCERPHRFSKGLNGTPRELRHSLGPGLRSPPRVMSRPPPSASPPKCIQMERHVIRPPPISPPPDSLPLDDGAAHVMHREVWMAVFSYLSHRDLCVCMRVCRTWNRWCCDKRLWTRIDLNRCKSITPLMLSGIIRRQPVSLDLSWTNISKKQLSWLINRLPGLRDLVLSGCSWIAVSALCSSSCPLLRTLDVQWVEGLKDAQMRDLLSPPTDNRPGQMDNRSKLRNIVELRLAGLDITDVSLRLIIRHMPLLSKLQLSYCNHINDQSINLLTAVGTTTRDSLTEVNLSDCNKVTDLCLSFFKRCGNICHIDLRYCKQVTKEGCEQFIAEMSVSVQFGQVEEKLLQKLS

Results are given in words; binding and its absence hold for the method and conditions named. In cells and extracts the contact can be indirect. These calls come from enrichment with a bait or labelling near it, and not all partners need be listed.
